The values below come from PubChem BioAssay AID248 (DTP/NCI, 2004).

The structures appear in SMILES notation. The list does not hold the whole screen: it gathers tests that were run many times, whatever their T/C, doses with no T/C, and many T/C values between a quarter and a half above the control. Other doses and runs of a compound stand elsewhere. T/C gives the treated animals as a percentage of the vehicle group. Some entries give survivors of the animals treated and no T/C: the source holds a T/C of zero for them, seemingly a mark for toxic or unscored doses. Some survivor counts are full or nearly so, which does not show that the dose was tolerated: the source hardly ever lists a survival T/C far under the control, and the zero likely stands for such cases as well. Counts of survivors are from the toxicity check (mostly the fifth day) where no day follows; animals may have died later. Schedule codes are those of the source, read here as Q, the interval in days (D) or hours (H), X, the number of doses. Some doses were run more than once; the values are given in rising order. Some schedule codes hold Z or #, which are not explained here. For survival time, the PubChem record calls one and a half times the control and up active, and a quarter to a half above the control has no call in these data; cut-offs in other NCI protocols can differ.

The test system of this experiment is L1210 leukemia ip in BDF1 mice, survival T/C. Kind of experiment: NCI In Vivo Anticancer Drug Screen. Data for tumor model L1210 Leukemia (intraperitoneal) in B6D2F1 (BDF1) mice. The conditions noted are these: T/C endpoint: mean survival time, higher T/C = longer survival.
[1] abbreviates: dose: 400.0 mg/kg/injection, schedule: Q01DX009 (ip), vehicle: Klucel (hydroxypropylcellulose) (HPC).
Where [2] appears, read: dose: 400.0 mg/kg/injection, schedule: Q04DX003 (ip), vehicle: Klucel (hydroxypropylcellulose) (HPC).
Setting [3] is: dose: 132.0 mg/kg/injection, schedule: Q01DX009 (ip), vehicle: saline.
The mark [4] stands for this setting: dose: 400.0 mg/kg/injection, schedule: Q04DX003 (ip), vehicle: saline.
The mark [5] stands for this setting: dose: 400.0 mg/kg/injection, schedule: Q01DX001 (ip), vehicle: saline with Tween-80.
Setting [6] is: dose: 100.0 mg/kg/injection, schedule: Q04DX003 (ip), vehicle: saline.
Setting [7] is: dose: 400.0 mg/kg/injection, schedule: Q01DX001 (ip), vehicle: carboxymethylcellulose (CMC).

For `CN(C)/N=[N+](\[O-])c1ccccc1`, the survivor count is reported as 4 of 6 (dose: 100.0 mg/kg/injection, schedule: Q01DX009 (ip), vehicle: Klucel (hydroxypropylcellulose) (HPC)); 0 of 6 (dose: 200.0 mg/kg/injection, schedule: Q01DX009 (ip), vehicle: Klucel (hydroxypropylcellulose) (HPC)); 1 of 6 (dose: 200.0 mg/kg/injection, schedule: Q04DX003 (ip), vehicle: Klucel (hydroxypropylcellulose) (HPC)); 0 of 6 under setting [1]; 0 of 6 under setting [2].
Consider `Nc1cc(Cl)ccc1NCCO`, for which the survivor count was 6 of 6 under setting [3]; 6 of 6 (dose: 200.0 mg/kg/injection, schedule: Q04DX003 (ip), vehicle: acetone); 0 of 6 (dose: 300.0 mg/kg/injection, schedule: Q04DX003 (ip), vehicle: acetone).
Turning to `CN(C)/N=C\c1cccnc1`, the survivor count under setting [4] is 0 of 6.
For the molecule `CC(=O)Nc1c(C)cccc1[N+](=O)[O-]`, the survivor count (dose: 200.0 mg/kg/injection, schedule: Q01DX001 (ip), vehicle: saline with Tween-80) was 1 of 3 and the survivor count under setting [5] was 0 of 3.
For `[N-]=Cc1c(O)cccc1[N+](=O)[O-].[N-]=Cc1cc([N+](=O)[O-])ccc1O.[Ni+2]`, the survivor count (dose: 400.0 mg/kg/injection, schedule: Q04DX003 (ip), vehicle: saline with Tween-80) is listed as 4 of 6.
With `c1cc[c]([Sb]([S]c2ncnc3nc[nH]c23)[c]2ccccc2)cc1`, the survivor count (dose: 20.0 mg/kg/injection, schedule: Q01DX001 (ip), vehicle: other) is reported as 3 of 6; the survivor count (dose: 40.0 mg/kg/injection, schedule: Q01DX001 (ip), vehicle: other) is on record as 0 of 6; the survivor count (dose: 80.0 mg/kg/injection, schedule: Q01DX001 (ip), vehicle: other) is listed as 0 of 6; the survivor count (dose: 100.0 mg/kg/injection, schedule: Q01DX001 (ip), vehicle: other) is listed as 0 of 6; the survivor count (dose: 200.0 mg/kg/injection, schedule: Q01DX001 (ip), vehicle: other) is 0 of 6; the survivor count (dose: 400.0 mg/kg/injection, schedule: Q01DX001 (ip), vehicle: other) is listed as 0 of 6.
Regarding `c1cc(Nc2ccncc2)ccn1`, the survivor count runs as follows: (dose: 50.0 mg/kg/injection, schedule: Q04DX003 (ip), vehicle: saline with Tween-80) 6 of 6; (dose: 100.0 mg/kg/injection, schedule: Q04DX003 (ip), vehicle: saline with Tween-80) 1 of 6.
As to `CCCCCCCCCCCC(=O)Nc1ccc(O)cc1`, the survivor count (dose: 100.0 mg/kg/injection, schedule: Q01DX009 (ip), vehicle: gum acacia) is given as 6 of 6.
On to `CN(C)C(=O)c1cccc(NCc2ccc3nc(N)nc(N)c3c2)c1`, for which the survivor count is 3 of 6 (dose: 200.0 mg/kg/injection, schedule: Q01DX009 (ip), vehicle: saline with Tween-80) and 6 of 6 (dose: 400.0 mg/kg/injection, schedule: Q01DX009 (ip), vehicle: saline with Tween-80).
Consider `CCOC(=O)c1cnc(SC)nc1NNc1ccc([N+](=O)[O-])cc1`, for which the survivor count under setting [5] was 6 of 6.
Consider `COc1ccc2c(c1O)-c1cc(O)cc3c1C(C2)NCC3` (centres undefined), for which the survivor count by setting is: (dose: 5.0 mg/kg/injection, schedule: Q04DX003 (ip), vehicle: DMSO) 6 of 6; (dose: 10.0 mg/kg/injection, schedule: Q04DX003 (ip), vehicle: DMSO) 4 of 6.
Take `CC(CC(=O)c1ccc(F)cc1)N1CCOCC1` (centres undefined): where the note is “dose: 400.0 mg/kg/injection, schedule: Q01DX001 (ip), vehicle: saline”, the survivor count was 3 of 4.
`O=C(O)c1cccc(N2C(=O)C=CC2=O)c1`: the survivor count was 1 of 3 and 2 of 3 (dose: 100.0 mg/kg/injection, schedule: Q04DX002 (ip), vehicle: Klucel (hydroxypropylcellulose) (HPC)); 1 of 3 (dose: 200.0 mg/kg/injection, schedule: Q04DX002 (ip), vehicle: Klucel (hydroxypropylcellulose) (HPC)); 0 of 3 (dose: 400.0 mg/kg/injection, schedule: Q04DX002 (ip), vehicle: Klucel (hydroxypropylcellulose) (HPC)).
As to `CC(=O)NCC1(c2ccccc2)CCN(CCCC(=O)c2ccc(F)cc2)CC1`, the survivor count reads like this: (dose: 6.25 mg/kg/injection, schedule: Q03HX024 (ip), vehicle: saline) 6 of 6; (dose: 12.5 mg/kg/injection, schedule: Q03HX024 (ip), vehicle: saline) 6 of 6; under setting [6], 6 of 6; under setting [3], 0 of 6; (dose: 200.0 mg/kg/injection, schedule: Q04DX003 (ip), vehicle: saline) 1 of 6 and 3 of 4; (dose: 264.0 mg/kg/injection, schedule: Q01DX009 (ip), vehicle: saline) 0 of 6. Besides, the survivor count is recorded as 1 of 6 (dose: 300.0 mg/kg/injection, schedule: Q01DX001 (ip), vehicle: saline) and 0 of 4 under setting [4]. The T/C under setting [6] was 134 % of control.
`Cc1ccc(NC(=O)N(CCCCl)N=O)cc1`: the survivor count runs as follows: (dose: 200.0 mg/kg/injection, schedule: Q01DX009 (ip), vehicle: carboxymethylcellulose (CMC)) 6 of 6; (dose: 600.0 mg/kg/injection, schedule: Q01DX001 (ip), vehicle: carboxymethylcellulose (CMC)) 0 of 6. In addition, the T/C (dose: 266.0 mg/kg/injection, schedule: Q01DX001 (ip), vehicle: carboxymethylcellulose (CMC)) was 136 % of control and the T/C under setting [7] was 137 % of control.
In the case of `CCCCN(CCC#N)C(N)=O`, the survivor count (dose: 200.0 mg/kg/injection, schedule: Q01DX Z (ip), vehicle: methylcellulose (MC)) is listed as 5 of 6.
For `O=c1ccc2ccccc2[nH]1.[Mn]`, the survivor count by setting is: (dose: 80.0 mg/kg/injection, schedule: Q01DX001 (ip), vehicle: carboxymethylcellulose (CMC)) 0 of 4; (dose: 100.0 mg/kg/injection, schedule: Q01DX001 (ip), vehicle: carboxymethylcellulose (CMC)) 0 of 6; (dose: 200.0 mg/kg/injection, schedule: Q01DX001 (ip), vehicle: carboxymethylcellulose (CMC)) 1 of 6; under setting [7], 0 of 6.
In the case of `OC(c1ccccc1)(c1ccccc1)C1CCCCC1=C(c1ccccc1)c1ccccc1` (centres undefined), the survivor count (dose: 200.0 mg/kg/injection, schedule: Q01DX009 (ip), vehicle: saline) is 6 of 6.
With `CCCOC(=O)c1ccc(OC(=O)NC)cc1`, the survivor count runs as follows: (dose: 400.0 mg/kg/injection, schedule: Q01DX009 (ip), vehicle: carboxymethylcellulose (CMC)) 1 of 6 and 3 of 3; (dose: 400.0 mg/kg/injection, schedule: Q04DX003 (ip), vehicle: carboxymethylcellulose (CMC)) 3 of 6.
Turning to `COc1ccc(CNCCNCc2ccc(OC)cc2)cc1`, under setting [2], the survivor count was 0 of 6.
On to `c1cc[c]([Sn]([c]2ccccc2)[c]2ccccc2)cc1.c1ccc([Si](c2ccccc2)c2ccccc2)cc1`, for which the survivor count (dose: 25.6 mg/kg/injection, schedule: Q04DX002 (ip), vehicle: saline with Tween-80) is recorded as 3 of 3.
`O=C([S][Ge]([c]1ccccc1)([c]1ccccc1)[c]1ccccc1)c1ccc([N+](=O)[O-])cc1`: the survivor count under setting [1] is listed as 4 of 6.
In the case of `CCCCCc1ccccc1`, the survivor count (dose: 1600.0 mg/kg/injection, schedule: Q01DX Z (ip), vehicle: carboxymethylcellulose (CMC)) is listed as 0 of 6.
Take `CCOC(O)C(F)(F)F` (centres undefined): the survivor count reads like this: (dose: 400.0 mg/kg/injection, schedule: Q01DX009 (ip), vehicle: acetone) 3 of 6; (dose: 400.0 mg/kg/injection, schedule: Q01DX015 (ip), vehicle: saline) 3 of 6.
As for `Cn1c2ccccc2c2cc[n+]3c(c21)CCCC3`, the survivor count (dose: 80.0 mg/kg/injection, schedule: Q01DX001 (ip), vehicle: saline) is 1 of 6.
Regarding `CSC(=N)c1cccc(OCc2ccccc2)c1`, the survivor count under setting [1] is 0 of 6.
